Measurements published in the supplement of paper PMC12542422.
Counter-ions that a name gives are not always drawn. ± gives the standard deviation of the averaged measurements. Some of the results follow. Values are raw readings; no control value is given beside them.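 Ribosome-assembly readouts in HeLa cells were imaged via ENP1 staining, with or without export block, or inducible tagged ribosomal protein reporters. Machine learning classified per-cell signal location versus solvent (DMSO) controls. Hits surpassed the DMSO false-positive mean by five standard deviations and were visually confirmed; three biological replicates.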

Tested on: HeLa RPS2-YFP reporter
Assay: fraction of reporter-positive cells with nuclear (nucleolar or nucleolar/nucleoplasmic) RPS2-YFP (MainHitrate); higher = more cells with nucleolar/nuclear readout signal (for ENP1 -LMB: less RNAPI inhibition; for +LMB ENP1 and RP reporters: stronger nuclear/nucleolar retention, i.e. ribosome biogenesis defect)
Conditions: concentration: 1 µM; treatment time: 6 h

Compound	fraction of reporter-positive cells with nuclear
N=C(N)N/N=C/c1c(Cl)cccc1Cl [Guanabenz acetate]	0.123 ± 0.082
CC(=O)[C@H]1CC[C@H]2[C@@H]3CCC4=CC(=O)CC[C@]4(C)[C@H]3CC[C@]12C [Progesterone (Prometrium)]	0.135 ± 0.067
Cc1onc(-c2ccccc2)c1C(=O)N[C@@H]1C(=O)N2[C@@H]1SC(C)(C)[C@@H]2C(=O)O [Oxacillin sodium monohydrate]	0.132 ± 0.077
CCN(CC)C(=O)C1(c2ccccc2)CC1CN (centres undefined) [Milnacipran HCl]	0.104 ± 0.099
CC(=O)Nc1ccccc1 [Acetanilide (Antifebrin)]	0.118 ± 0.068
O=NN(CCCl)C(=O)NC1CCCCC1 [Lomustine (CeeNU)]	0.11 ± 0.13
Cc1cccc(Nc2ccncc2S(=O)(=O)NC(=O)NC(C)C)c1 [Torsemide (Demadex)]	0.0675 ± 0.031
O=P(O)(O)C(O)(Cn1ccnc1)P(=O)(O)O [Zoledronic Acid (Zoledronate)]	0.0993 ± 0.072
C[C@@H]1C/C=C/C=C/C=C/C=C/[C@H](O[C@@H]2O[C@H](C)[C@@H](O)[C@H](N)[C@@H]2O)C[C@@H]2O[C@](O)(C[C@@H](O)C[C@H]3O[C@@H]3/C=C/C(=O)O1)C[C@H](O)[C@H]2C(=O)O [Natamycin (Pimaricin)]	0.0785 ± 0.065
CN(C)CCCN1c2ccccc2Sc2ccc(Cl)cc21 [Chlorpromazine (Sonazine)]	0.127 ± 0.1
COc1cccc2c1C(=O)c1c(O)c3c(c(O)c1C2=O)C[C@@](O)(C(=O)CO)C[C@@H]3O[C@H]1C[C@H](N)[C@H](O)[C@H](C)O1 [Doxorubicin (Adriamycin)]	0.033 ± 0.022
Cc1cc(N)c2ccccc2[n+]1CCCCCCCCCC[n+]1c(C)cc(N)c2ccccc21 [Dequalinium chloride]	0.117 ± 0.09
C[C@@H]1CC(=O)NN=C1c1ccc(NN=C(C#N)C#N)cc1 [Levosimendan]	0.128 ± 0.11
CCN1CCN(C(=O)N[C@@H](C(=O)N[C@@H]2C(=O)N3C(C(=O)O)=C(CSc4nnnn4C)CS[C@H]23)c2ccc(O)cc2)C(=O)C1=O [Cefoperazone (Cefobid)]	0.0973 ± 0.043
CCC(=O)O[C@]1(C(=O)CCl)[C@@H](C)C[C@H]2[C@@H]3C[C@H](F)C4=CC(=O)C=C[C@]4(C)[C@@]3(F)[C@@H](O)C[C@@]21C [Halobetasol Propionate]	0.138 ± 0.13
C[N+](C)(C)C[C@H](O)CC(=O)[O-] [L-carnitine (Levocarnitine)]	0.143 ± 0.11
CCOC(=O)[C@H](CCc1ccccc1)N[C@@H](C)C(=O)N1Cc2ccccc2C[C@H]1C(=O)O [Quinapril HCl (Accupril)]	0.0967 ± 0.097
N[C@H](C(=O)O)[C@H](O)c1ccc(O)c(O)c1 [Droxidopa (L-DOPS)]	0.116 ± 0.095
COCCCC/C(=N\OCCN)c1ccc(C(F)(F)F)cc1 [Fluvoxamine maleate]	0.121 ± 0.079
Clc1ccc(C(Cn2ccnc2)OCc2ccc(Sc3ccccc3)cc2)c(Cl)c1 (centres undefined) [Fenticonazole nitrate]	0.14 ± 0.1

Taken from above:
Entry for CC(=O)Nc1ccccc1 [Acetanilide (Antifebrin)] under fraction of reporter-positive cells with nuclear: 0.118 ± 0.068
Entry for CCOC(=O)[C@H](CCc1ccccc1)N[C@@H](C)C(=O)N1Cc2ccccc2C[C@H]1C(=O)O [Quinapril HCl (Accupril)] under fraction of reporter-positive cells with nuclear: 0.0967 ± 0.097
Entry for Cc1cccc(Nc2ccncc2S(=O)(=O)NC(=O)NC(C)C)c1 [Torsemide (Demadex)] under fraction of reporter-positive cells with nuclear: 0.0675 ± 0.031

Later entries:

Compound	fraction of reporter-positive cells with nuclear
CC(=O)[C@]1(O)Cc2c(O)c3c(c(O)c2[C@@H](O[C@H]2C[C@H](N)[C@H](O)[C@H](C)O2)C1)C(=O)c1ccccc1C3=O [Idarubicin HCl]	0.124 ± 0.074
CC(C(=O)O)c1ccc2c(c1)[nH]c1ccc(Cl)cc12 (centres undefined) [Carprofen]	0.125 ± 0.12
Nc1nc(=O)[nH]cc1F [Flucytosine (Ancobon)]	0.0764 ± 0.057
C[C@@H](CN1CC(=O)NC(=O)C1)N1CC(=O)NC(=O)C1 [Dexrazoxane Hydrochloride]	0.101 ± 0.054
CC1(C)S[C@@H]2[C@H](NC(=O)[C@H](N)c3ccc(O)cc3)C(=O)N2[C@H]1C(=O)O [Amoxicillin sodium (Amox)]	0.132 ± 0.095
O=C(O)C[C@H](O)C[C@H](O)/C=C/c1c(C2CC2)nc2ccccc2c1-c1ccc(F)cc1 [Pitavastatin calcium (Livalo)]	0.115 ± 0.076
CCC[C@H](NC(=O)[C@@H]1[C@H]2CCC[C@H]2CN1C(=O)[C@@H](NC(=O)[C@@H](NC(=O)c1cnccn1)C1CCCCC1)C(C)(C)C)C(=O)C(=O)NC1CC1 [Telaprevir (VX-950)]	0.119 ± 0.076
CC(=O)NS(=O)(=O)c1ccc(N)cc1 [sulfacetamide sodium]	0.12 ± 0.1
CCN(CC)C(=O)/C(C#N)=C/c1cc(O)c(O)c([N+](=O)[O-])c1 [Entacapone]	0.119 ± 0.1
CN(C)CCC=C1c2ccccc2CCc2ccccc21 [Amitriptyline HCl]	0.119 ± 0.1
CC(C)Cc1ccc(C(C)C(=O)O)cc1 (centres undefined) [Ibuprofen Lysine (NeoProfen)]	0.124 ± 0.08
N[C@@H]1CONC1=O [D-Cycloserine]	0.121 ± 0.056
OC[C@H]1OC(O)[C@H](O)[C@@H](O)[C@@H]1O (stereo partly drawn) [Dextrose (D-glucose)]	0.0978 ± 0.091
CO[C@H]1C[C@@H]2CC[C@@H](C)[C@@](O)(O2)C(=O)C(=O)N2CCCC[C@H]2C(=O)O[C@H]([C@H](C)C[C@@H]2CC[C@@H](O)[C@H](OC)C2)CC(=O)[C@H](C)/C=C(\C)[C@@H](O)[C@@H](OC)C(=O)[C@H](C)C[C@H](C)/C=C/C=C/C=C/1C [Rapamycin (Sirolimus)]	0.163 ± 0.16
CC(C(=O)O)c1cccc(Oc2ccccc2)c1 (centres undefined) [Fenoprofen calcium hydrate]	0.113 ± 0.1
CCN1CCN(c2cc3c(cc2F)c(=O)c(C(=O)O)cn3C2CC2)CC1 [Enrofloxacin]	0.126 ± 0.097
O=C(Oc1ccccc1C(=O)O)c1ccccc1O [Sasapyrine]	0.127 ± 0.082
N[C@@H]1CCCCN(c2c(F)cc3c(=O)c(C(=O)O)cn(C4CC4)c3c2Cl)C1 [Besifloxacin HCl (Besivance)]	0.132 ± 0.083
Cc1ccc(O)c([C@H](CCN(C(C)C)C(C)C)c2ccccc2)c1 [Tolterodine tartrate (Detrol LA)]	0.134 ± 0.11
